PubChem BioAssay AID1259308 – NCATS, 2017
Test: 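Candidate targets for better recombinant protein yield in mammalian cells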 (primary screen). System: human HEK293 embryonic kidney cells stably expressing firefly luciferase (HEK-CMV-Luc2-Hygro). Reagent: single siRNA against human genes, 0.8 pmol siRNA per well. Time to read-out: 72 h. Measurement: 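Luciferase light (ONE-Glo) measured on one replicate plate set and viability (CellTiter-Glo) on the other, scaled to a negative control siRNA, with robust z-scores and luciferase per cell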. Scale: total luciferase, z-score and total luciferase, % of control: higher = more reporter protein produced; luciferase per cell, z-score: higher = more reporter output per viable cell. Active means: 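An siRNA counts as active if its total luciferase robust z-score exceeds 3; genes with two or more such siRNAs out of three were retested with fresh siRNAs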. Calls: active = raised luciferase; inactive = no rise.
This is an unselected part of about 59,000 deposited reagents. About 1,510 of all reagents (2.6%) count as active. 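Calls use total luciferase alone and ignore viability, so some active siRNAs may act by altering cell number.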 The numbers tell different reagents against one gene apart. Further read-outs or replicates are left out here.

| gene | reagent | total luciferase, z-score | total luciferase, % of control | luciferase per cell, z-score | outcome |
| --- | --- | --- | --- | --- | --- |
| OGDH (GeneID 4967) | 1 | -1.74 | 47.3 | -1.14 | inactive |
| OGDH (GeneID 4967) | 2 | -0.976 | 62.5 | 0.693 | inactive |
| OGDH (GeneID 4967) | 3 | -2.51 | 31.9 | -2.36 | inactive |
| NEXN (GeneID 91624) | 1 | -0.231 | 77.3 | 0.157 | inactive |
| NEXN (GeneID 91624) | 2 | 1.39 | 109 | 0.752 | inactive |
| NEXN (GeneID 91624) | 3 | 1.14 | 104 | 0.889 | inactive |
| SRPK2 (GeneID 6733) | 1 | 0.421 | 90.3 | 0.362 | inactive |
| SRPK2 (GeneID 6733) | 2 | 0.221 | 86.3 | -0.547 | inactive |
| SRPK2 (GeneID 6733) | 3 | 0.524 | 92.3 | 0.167 | inactive |
| BANP (GeneID 54971) | 1 | 3.9 | 159 | 2.84 | active |
| BANP (GeneID 54971) | 2 | 0.933 | 100 | 0.547 | inactive |
| BANP (GeneID 54971) | 3 | -1.27 | 56.6 | -0.757 | inactive |
| CDC6 (GeneID 990) | 1 | -0.865 | 64.7 | -0.499 | inactive |
| CDC6 (GeneID 990) | 2 | -0.28 | 76.3 | -0.0779 | inactive |
| CDC6 (GeneID 990) | 3 | -0.741 | 67.1 | 0.044 | inactive |
| GGTLC2 (GeneID 91227) | 1 | 0.274 | 87.3 | -0.0769 | inactive |
| GGTLC2 (GeneID 91227) | 2 | -1.94 | 43.4 | -2.22 | inactive |
| GGTLC2 (GeneID 91227) | 3 | 0.208 | 86 | -0.259 | inactive |
| AIMP1 (GeneID 9255) | 1 | 0.189 | 85.7 | -0.353 | inactive |
| AIMP1 (GeneID 9255) | 2 | -0.43 | 73.3 | -0.481 | inactive |
| AIMP1 (GeneID 9255) | 3 | -0.689 | 68.2 | -1.57 | inactive |
| CDC37 (GeneID 11140) | 1 | 0.819 | 98.2 | 0.66 | inactive |
| CDC37 (GeneID 11140) | 2 | -1.64 | 49.3 | -0.334 | inactive |
| CDC37 (GeneID 11140) | 3 | -0.921 | 63.6 | -0.0965 | inactive |
| ZBTB39 (GeneID 9880) | 1 | -0.984 | 62.3 | -0.556 | inactive |
| ZBTB39 (GeneID 9880) | 2 | 2.89 | 139 | 2.68 | inactive |
| ZBTB39 (GeneID 9880) | 3 | 3.85 | 158 | 2.85 | active |
| TTLL11 (GeneID 158135) | 1 | -1.46 | 52.9 | -1.12 | inactive |
| TTLL11 (GeneID 158135) | 2 | -1.02 | 61.6 | -0.199 | inactive |
| TTLL11 (GeneID 158135) | 3 | -0.312 | 75.7 | -0.455 | inactive |
| FEZ2 (GeneID 9637) | 1 | 2.15 | 125 | 1.44 | inactive |
| FEZ2 (GeneID 9637) | 2 | 0.0574 | 83 | 0.3 | inactive |
| FEZ2 (GeneID 9637) | 3 | 0.166 | 85.2 | -0.119 | inactive |
| SOWAHC (GeneID 65124) | 1 | -0.747 | 67 | -0.737 | inactive |
| SOWAHC (GeneID 65124) | 2 | -0.0318 | 81.3 | -0.333 | inactive |
| SOWAHC (GeneID 65124) | 3 | 0.00233 | 81.9 | -0.428 | inactive |
| N4BP3 (GeneID 23138) | 1 | 1.96 | 121 | 0.637 | inactive |
| N4BP3 (GeneID 23138) | 2 | 0.598 | 93.8 | 1.3 | inactive |
| N4BP3 (GeneID 23138) | 3 | 1.47 | 111 | 1.44 | inactive |
| OR51M1 (GeneID 390059) | 1 | 0.99 | 102 | 1.31 | inactive |
| OR51M1 (GeneID 390059) | 2 | -0.156 | 78.8 | -0.251 | inactive |
| OR51M1 (GeneID 390059) | 3 | 0.905 | 99.9 | 0.803 | inactive |
| PGBD3 (GeneID 267004) | 1 | -0.0935 | 80 | 0.0513 | inactive |
| PGBD3 (GeneID 267004) | 2 | -0.722 | 67.5 | -0.483 | inactive |
| PGBD3 (GeneID 267004) | 3 | -0.208 | 77.8 | -0.897 | inactive |
| KDM6A (GeneID 7403) | 1 | 0.648 | 94.8 | 1.3 | inactive |
| KDM6A (GeneID 7403) | 2 | -0.4 | 73.9 | -0.913 | inactive |
| KDM6A (GeneID 7403) | 3 | -0.42 | 73.5 | -1.14 | inactive |
| MIER1 (GeneID 57708) | 1 | -0.388 | 74.2 | -0.588 | inactive |
| MIER1 (GeneID 57708) | 2 | -0.681 | 68.3 | -1.75 | inactive |
| MIER1 (GeneID 57708) | 3 | 0.819 | 98.2 | 0.376 | inactive |
| CDY2A (GeneID 9426) | 1 | 0.683 | 95.5 | 0.816 | inactive |
| CDY2A (GeneID 9426) | 2 | 0.119 | 84.3 | -0.0776 | inactive |
| CDY2A (GeneID 9426) | 3 | 0.411 | 90.1 | -0.36 | inactive |
| RPS12P4 (GeneID 391370) | 1 | -2.25 | 37.1 | -0.491 | inactive |
| RPS12P4 (GeneID 391370) | 2 | -2.29 | 36.3 | -1.8 | inactive |
| RPS12P4 (GeneID 391370) | 3 | 0.343 | 88.7 | 0.511 | inactive |

6 entries from above, set out differently.
{"gene": "FEZ2 (GeneID 9637)", "reagent": 3, "total luciferase, z-score": 0.166, "total luciferase, % of control": 85.2, "luciferase per cell, z-score": -0.119, "outcome": "inactive"}
{"gene": "SOWAHC (GeneID 65124)", "reagent": 1, "total luciferase, z-score": -0.747, "total luciferase, % of control": 67, "luciferase per cell, z-score": -0.737, "outcome": "inactive"}
{"gene": "SOWAHC (GeneID 65124)", "reagent": 2, "total luciferase, z-score": -0.0318, "total luciferase, % of control": 81.3, "luciferase per cell, z-score": -0.333, "outcome": "inactive"}
{"gene": "SOWAHC (GeneID 65124)", "reagent": 3, "total luciferase, z-score": 0.00233, "total luciferase, % of control": 81.9, "luciferase per cell, z-score": -0.428, "outcome": "inactive"}
{"gene": "N4BP3 (GeneID 23138)", "reagent": 1, "total luciferase, z-score": 1.96, "total luciferase, % of control": 121, "luciferase per cell, z-score": 0.637, "outcome": "inactive"}
{"gene": "N4BP3 (GeneID 23138)", "reagent": 2, "total luciferase, z-score": 0.598, "total luciferase, % of control": 93.8, "luciferase per cell, z-score": 1.3, "outcome": "inactive"}
